Measurements reported in article PMC7819943, “Rice protein-binding microarrays: a tool to detect cis-acting elements near promoter regions in rice”.
The list shows a part of the results.

Chains of the proteins cited; added tags and fusions are not shown.
UniProt Q0JBA9, entry or part of it: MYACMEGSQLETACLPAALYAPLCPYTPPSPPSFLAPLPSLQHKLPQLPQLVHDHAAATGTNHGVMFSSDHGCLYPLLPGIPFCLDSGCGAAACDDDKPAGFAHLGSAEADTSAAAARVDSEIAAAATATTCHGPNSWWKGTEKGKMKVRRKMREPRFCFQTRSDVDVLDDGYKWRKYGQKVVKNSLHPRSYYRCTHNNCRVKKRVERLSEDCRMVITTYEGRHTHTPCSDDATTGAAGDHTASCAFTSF

Molecular target: OsWRKY34 (Oryza sativa, UniProt Q0JBA9 1-250)
Assay: protein-binding microarray (RPBM); PBS, 2% BSA, 51.3 ng/ul salmon testes DNA, 50 uM zinc acetate, 200 nM TF, 25 C, 1 h; high values mean tight binding
Details: protein: recombinant; tags: N-terminal polyhistidine and DsRed monomer fusion (pET32a); label: CyDye5-dUTP incorporated in the synthesized complementary strand; 3' TTTTT single-stranded linker to array surface; dsDNA, one strand shown
In short: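 Binding signal is defined as the fluorescence intensity of each feature in arbitrary units, read on an Axon 4000B scanner. Transcription factors with N-terminal polyhistidine and DsRed fusions came from E. coli BL21-CodonPlus and were purified on Ni–NTA. They were incubated at 200 nM for 1 h at 25 °C on a custom Agilent array that had been made double-stranded with Cy5-dUTP, with 50 µM zinc acetate present, and the array was washed.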

Sequence	binding signal
TAGTCTTTTGTCTCTCTATTTTTTTTTGGGCAAGTCTTTTCGGAGTCACCTAGTGCAG	12100 fluorescence intensity (a.u.)
TTTGTGGTGGGTTCTAACTATTTTTTAATTGTGGCATAGTCGGAGTCACCTAGTGCAG	9800 fluorescence intensity (a.u.)
ATCTTCGCAACTGCCTCCTTCCGCGTCGCGAGGTGTTTTCCGGAGTCACCTAGTGCAG	9410 fluorescence intensity (a.u.)
TTTTAAAAAAGTCAACGATATTAAATATTTAGGGACGGATCGGAGTCACCTAGTGCAG	8220 fluorescence intensity (a.u.)
CCTCATCTTGGCCACGCGCACCCCGGCCACGCGTACATGGCGGAGTCACCTAGTGCAG	8350 fluorescence intensity (a.u.)
GGTTTGGTTGGGGTTTAGGTCTCGGGGCGGCGCGGAGGCGCGGAGTCACCTAGTGCAG	17700 fluorescence intensity (a.u.)
AAGATTTCGTTGGGTTTTTCTCTGTTACTTGACTAATACTCGGAGTCACCTAGTGCAG	8060 fluorescence intensity (a.u.)
CATCCATATTAGCTTCCAACACAAGGAGATCACAACAATGCGGAGTCACCTAGTGCAG	9010 fluorescence intensity (a.u.)
CAGCCTGTACTTGTCCTTGTTGCCGACGATCTCCTCAAAGCGGAGTCACCTAGTGCAG	9750 fluorescence intensity (a.u.)
ACTTCAAACGGCCGCCGAATCTGCATACGACCTCCATTTTCGGAGTCACCTAGTGCAG	11000 fluorescence intensity (a.u.)
AATCACTGGTATTACGGCTACCTCATGTTTTGAATCAGCTCGGAGTCACCTAGTGCAG	8760 fluorescence intensity (a.u.)
ACAGCCGCGTCGCCGCTTGTCCGCCTGCGCTCGTTCTCGCCGGAGTCACCTAGTGCAG	9640 fluorescence intensity (a.u.)
AGAGTACATTCTAGAAGCCCTATGCCTTATCCTATATAAACGGAGTCACCTAGTGCAG	8420 fluorescence intensity (a.u.)
ATATGCTGTCTTTTACTTGACTTGTAGTGCAACCTTCCACCGGAGTCACCTAGTGCAG	12100 fluorescence intensity (a.u.)
ATAAATCCCTTTCTTACCTGTGCCGGCTTCTCCGCTTGTTCGGAGTCACCTAGTGCAG	8700 fluorescence intensity (a.u.)
GTTACTGTTGTTACCTATCTTGCTCTTTGTGCCCGTGTTGCGGAGTCACCTAGTGCAG	9800 fluorescence intensity (a.u.)
GTTGGGTGGCCTCCCTCCGTTTCTGCCTTCTTCATTGTCACGGAGTCACCTAGTGCAG	8180 fluorescence intensity (a.u.)
GTTACTAAATTTTGGTAGCGTTGGTTGCATTTGGGGCCATCGGAGTCACCTAGTGCAG	10100 fluorescence intensity (a.u.)
GGCCAGCAAACCCAACGCGCCGTCATTATCACACCACACACGGAGTCACCTAGTGCAG	10400 fluorescence intensity (a.u.)
TGTTTATGGATGGACTATGTGGGGTCAGTCGCCTCCGTAGCGGAGTCACCTAGTGCAG	10500 fluorescence intensity (a.u.)
CAAGTCACCCAATCATCATCATCAAACGCCAACCAACAGCCGGAGTCACCTAGTGCAG	8630 fluorescence intensity (a.u.)

Given as comma-separated lines: entries from further up
Sequence,binding signal
TAGTCTTTTGTCTCTCTATTTTTTTTTGGGCAAGTCTTTTCGGAGTCACCTAGTGCAG,12100 fluorescence intensity (a.u.)
TTTGTGGTGGGTTCTAACTATTTTTTAATTGTGGCATAGTCGGAGTCACCTAGTGCAG,9800 fluorescence intensity (a.u.)
ATCTTCGCAACTGCCTCCTTCCGCGTCGCGAGGTGTTTTCCGGAGTCACCTAGTGCAG,9410 fluorescence intensity (a.u.)

(further entries)

Sequence	binding signal
TCCTTTCCTACTTGGATTCCATTCTCATCTCTCTCTCTCTCGGAGTCACCTAGTGCAG	8130 fluorescence intensity (a.u.)
ATTTTAATTCCGAATTTCAGTTATTTCCTAATTGTATTTCCGGAGTCACCTAGTGCAG	8100 fluorescence intensity (a.u.)
TAAAAATATATTAATATATTTTTCAAGTTTTTTACTAATACGGAGTCACCTAGTGCAG	9060 fluorescence intensity (a.u.)
TTTGATGTGACATGATGTAAAGTTTTGGGATGGGATCTAACGGAGTCACCTAGTGCAG	8700 fluorescence intensity (a.u.)
ACCTGGCCATAAATATATATATTGCTGCCCGTATTCCTGTCGGAGTCACCTAGTGCAG	8710 fluorescence intensity (a.u.)
TAGTGAGTGTGCATGTGTTATAAGTCTGCAATTGTACCGTCGGAGTCACCTAGTGCAG	10300 fluorescence intensity (a.u.)
GCGAACCGCGAATACAATAGCCGGCGCCCCGCGCGTACACCGGAGTCACCTAGTGCAG	8070 fluorescence intensity (a.u.)
CATCGTCACCGCCGATGACCGGTTATATTTATCTTCATGACGGAGTCACCTAGTGCAG	9120 fluorescence intensity (a.u.)
CAGATTCACATGACCAACAACATCCAGACCATGGCCGATTCGGAGTCACCTAGTGCAG	8140 fluorescence intensity (a.u.)
GACCCCTCCGACCGCTACGCCAACCACAACACCGTCTTCTCGGAGTCACCTAGTGCAG	9430 fluorescence intensity (a.u.)
GAGATGGATAGGGAGAGGGCTCACAGTCGCCGAGGCGGTCCGGAGTCACCTAGTGCAG	8460 fluorescence intensity (a.u.)
TGGATCATCGCAGCTTAAACATTAATTTGTTCTCGTCTTTCGGAGTCACCTAGTGCAG	9890 fluorescence intensity (a.u.)
ATTTGCCACTCTTACAAATGGTGCTTAATGATTTGCCACTCGGAGTCACCTAGTGCAG	8120 fluorescence intensity (a.u.)
TAATTCCTATGTTTTTTCAATCATCTGTTTTAGACTTGTACGGAGTCACCTAGTGCAG	9380 fluorescence intensity (a.u.)
CCATTGCTGCTGCCAACCCTATTCCTCTCTCTTCCACCGCCGGAGTCACCTAGTGCAG	8030 fluorescence intensity (a.u.)
ATTGAGCGATTTTCGGTATTTCACGATGGGTTATATTTTACGGAGTCACCTAGTGCAG	8720 fluorescence intensity (a.u.)
GTGTGGTGACGGTCGGGGAGGGTGGCTGCGCGCAGTGCCTCGGAGTCACCTAGTGCAG	10900 fluorescence intensity (a.u.)
CGTGGCTGCCCTCAACCAACTTTGGCCTCTCATCTTATCCCGGAGTCACCTAGTGCAG	8950 fluorescence intensity (a.u.)
AAACCTTTTTTTTTCTCTTCGCTCTCACAAAAGACAAACTCGGAGTCACCTAGTGCAG	8240 fluorescence intensity (a.u.)
ACTGAGTCCTCGCCGACGTCGTTGCTTGCACCAACCAACTCGGAGTCACCTAGTGCAG	9770 fluorescence intensity (a.u.)
TGTGGGTGTGTTTGTGTGCTCAGTTTGGATTAGGGCAAGTCGGAGTCACCTAGTGCAG	12200 fluorescence intensity (a.u.)
